Measured values: publication PMC7893173
These are yes or no findings as the source states them, for the method shown. Some results given as binding are weak or reduced against the parent protein; the word gives no strength.

Amino acid sequences for entries named in this document (tags omitted). Residues count along the entry.
UniProt P10215: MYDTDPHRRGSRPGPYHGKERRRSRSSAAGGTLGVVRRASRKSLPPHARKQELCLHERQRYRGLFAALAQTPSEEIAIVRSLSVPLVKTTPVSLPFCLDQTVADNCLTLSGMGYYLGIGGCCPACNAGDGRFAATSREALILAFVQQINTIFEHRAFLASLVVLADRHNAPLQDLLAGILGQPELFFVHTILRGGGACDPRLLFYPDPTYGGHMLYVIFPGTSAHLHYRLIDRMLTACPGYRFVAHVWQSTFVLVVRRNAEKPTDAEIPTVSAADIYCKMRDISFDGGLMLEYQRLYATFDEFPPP
UniProt P10218, residues 1-220: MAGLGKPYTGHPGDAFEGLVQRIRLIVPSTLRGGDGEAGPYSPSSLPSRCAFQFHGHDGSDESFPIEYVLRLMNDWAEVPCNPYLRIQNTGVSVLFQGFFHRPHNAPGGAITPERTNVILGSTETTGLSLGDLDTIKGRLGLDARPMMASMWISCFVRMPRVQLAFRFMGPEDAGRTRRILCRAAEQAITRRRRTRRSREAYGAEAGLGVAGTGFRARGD

Biological target: HSV-1 UL31 1–306 (herpes simplex virus type 1) (UniProt P10215)
Assay: co-purification of a co-expressed complex; UL31 1–306 and UL34 1–220 co-expressed in E. coli; purified as in ref. 14, passed over HiTrap Talon to remove cleaved His6-SUMO, then size-exclusion chromatography

Substance: HSV-1 UL34 1–220 (from UniProt P10218 1-220) (domain or fragment)
- binding: binds
